This is one part of the list.
Target: OsWRKY34 (Oryza sativa, UniProt Q0JBA9 1-250)
Assay: protein-binding microarray (RPBM); PBS, 2% BSA, 51.3 ng/ul salmon testes DNA, 50 uM zinc acetate, 200 nM TF, 25 C, 1 h; high values mean tight binding
Settings: protein: recombinant; tags: N-terminal polyhistidine and DsRed monomer fusion (pET32a); label: CyDye5-dUTP incorporated in the synthesized complementary strand; 3' TTTTT single-stranded linker to array surface; dsDNA, one strand shown
In short: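 Transcription factors were made in E. coli BL21-CodonPlus as N-terminal fusions to a polyhistidine tag and DsRed, then purified on Ni–NTA. After primer extension with Cy5-dUTP and blocking with 2% BSA, a custom Agilent array was exposed for 1 h at 25 °C to 200 nM protein in PBS, 2% BSA, salmon testes DNA and 50 µM zinc acetate. Washed arrays were scanned on an Axon 4000B, and the binding signal is per-feature fluorescence intensity in arbitrary units.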

Amino acid sequences for entries named in this document (tags omitted).
UniProt Q0JBA9, entry or part of it: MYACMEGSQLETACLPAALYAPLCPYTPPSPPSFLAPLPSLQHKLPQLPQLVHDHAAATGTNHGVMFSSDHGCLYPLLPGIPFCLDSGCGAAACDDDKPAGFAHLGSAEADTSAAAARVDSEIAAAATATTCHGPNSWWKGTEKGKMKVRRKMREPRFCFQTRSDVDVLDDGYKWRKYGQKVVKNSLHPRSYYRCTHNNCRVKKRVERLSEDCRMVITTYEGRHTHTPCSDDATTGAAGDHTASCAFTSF

Sequence	binding signal
GATCTTTCTCTCATCGACGAGCGCGAGCTGCTAGTATAATCGGAGTCACCTAGTGCAG	8610 fluorescence intensity (a.u.)
TATGTCTGGTTCGGTTTGAGGGGATTGAGAGAAAATAATTCGGAGTCACCTAGTGCAG	8660 fluorescence intensity (a.u.)
GAATAGCTGCTTGTTAACTAGGGATTAGAGGTGGGGTTTTCGGAGTCACCTAGTGCAG	8610 fluorescence intensity (a.u.)
CATACGAAGCATCCTTTTGGTTTCAATAAACATATTATGTCGGAGTCACCTAGTGCAG	8270 fluorescence intensity (a.u.)
TACCAATTTTCTCCGTGTTTTGGAATTTTTTTCGGCTCCTCGGAGTCACCTAGTGCAG	8050 fluorescence intensity (a.u.)
GCACTACTACTACACTCATACTCTCTTCTCTCTCCTGTTCCGGAGTCACCTAGTGCAG	10600 fluorescence intensity (a.u.)
CTCAACCTCTCGGTCGTCGGCCTCGTCCTCCGGGCCGGCACGGAGTCACCTAGTGCAG	12000 fluorescence intensity (a.u.)
GGCACTACCTCAAGATGCTTTGATGCAGATGTCTGTTGTCCGGAGTCACCTAGTGCAG	10300 fluorescence intensity (a.u.)
GCTCTAGGACCAAGTCCTCGGGCGCGCGCTCGCCTTTTATCGGAGTCACCTAGTGCAG	9040 fluorescence intensity (a.u.)
CCCAAGTCAGCCCCTCGTTTTTTTACGTCGTCCGAAAGATCGGAGTCACCTAGTGCAG	8080 fluorescence intensity (a.u.)
CTACCCGAAGCTGTCCTTACCGGGCTTCTTGATTTGCGGACGGAGTCACCTAGTGCAG	8120 fluorescence intensity (a.u.)
TCGTGTCAATGTGTGTTTTTTGTGGATCTTCTTGGTTTGGCGGAGTCACCTAGTGCAG	10700 fluorescence intensity (a.u.)
GATGTCATGTCTGATCCTGATTTCGACCTGCTCTACTGCACGGAGTCACCTAGTGCAG	9790 fluorescence intensity (a.u.)
TTTTTCTCTGCGTCCTCTGCCCTCGATTGCTGGCGTTGCTCGGAGTCACCTAGTGCAG	12800 fluorescence intensity (a.u.)
GGTGTTGTGATTTATATATTGAGAATTCGATGTTCCATCACGGAGTCACCTAGTGCAG	8180 fluorescence intensity (a.u.)
TTTTTGTGATGTGCCTTACATGGTTGAATTAAGTCTGTTTCGGAGTCACCTAGTGCAG	8580 fluorescence intensity (a.u.)
TTATAGCTCAGATCTTTGTCAACTCTCTCGCACGTGACGTCGGAGTCACCTAGTGCAG	8500 fluorescence intensity (a.u.)
TATGACGTGTTTCTTATGTCTTGGTTTGTGATCACTTGTTCGGAGTCACCTAGTGCAG	11700 fluorescence intensity (a.u.)
TTTTTCCATACGCAGGTGATTTGACAGCCTATTGCTTTTGCGGAGTCACCTAGTGCAG	8430 fluorescence intensity (a.u.)
CCCAAGCCGCGGCCAAGCCATTTTTCACCGTTCACCGTGGCGGAGTCACCTAGTGCAG	9980 fluorescence intensity (a.u.)
ATTATGCATTTATTTTATTTGAAACTTTAATGCTTTTTTTCGGAGTCACCTAGTGCAG	8110 fluorescence intensity (a.u.)

Single values from above:
binding signal with TTTTTCTCTGCGTCCTCTGCCCTCGATTGCTGGCGTTGCTCGGAGTCACCTAGTGCAG reads 12800 fluorescence intensity (a.u.)
binding signal with GGCACTACCTCAAGATGCTTTGATGCAGATGTCTGTTGTCCGGAGTCACCTAGTGCAG reads 10300 fluorescence intensity (a.u.)

Continued.

Sequence	binding signal
CTCGTCTCGTTTCGTTTCGCTTCATCTCGTCATCGATGCGCGGAGTCACCTAGTGCAG	9330 fluorescence intensity (a.u.)
AAACTTATTTTAATATTCCTTATTTTTAATTTCGAATTTCCGGAGTCACCTAGTGCAG	8410 fluorescence intensity (a.u.)
CACCATTTGGATCTCATGTTCACAGTTTCATCTAGGGACACGGAGTCACCTAGTGCAG	8180 fluorescence intensity (a.u.)
ACATTTATAGCTCATCTTGTTTTGTTTATCTTCTCAATTTCGGAGTCACCTAGTGCAG	8400 fluorescence intensity (a.u.)
GTTTTATCTATTTTTTTAGTGTGTTGGCCCAGTCATTTTTCGGAGTCACCTAGTGCAG	11200 fluorescence intensity (a.u.)
TAGTTTTGCATGTCTCGTATTTAATCCCGATCTTTATAAGCGGAGTCACCTAGTGCAG	8150 fluorescence intensity (a.u.)
TATGTTTGTGCTTGTGGTGCCGCGAAAAATCTTACTACTCCGGAGTCACCTAGTGCAG	8290 fluorescence intensity (a.u.)
ATGGTGCTGATCGGTTTTTGGCGCTTGTTTTACTTTTACACGGAGTCACCTAGTGCAG	11600 fluorescence intensity (a.u.)
TCGATATCCGGCGTCTTGTCTTGATGTATGTTGGCTTGTACGGAGTCACCTAGTGCAG	8620 fluorescence intensity (a.u.)
GCAAATGTGAGGGCTCTTCTTTCCTTTCTTTGTGTGTTTTCGGAGTCACCTAGTGCAG	9860 fluorescence intensity (a.u.)
ATTTTATGTCACTGACTTTCTTCCCATTCTATAATATGTCCGGAGTCACCTAGTGCAG	8590 fluorescence intensity (a.u.)
TTTTCTTTGCTTTTCGGTTTCGTTCTCCGTTTTGGTTTTTCGGAGTCACCTAGTGCAG	12400 fluorescence intensity (a.u.)
GGTAAGGGTGGGTTTGGAGCTGTGTTCCTTGGTTACTTGGCGGAGTCACCTAGTGCAG	13500 fluorescence intensity (a.u.)
ACACGATATAGTCATTGCAATTATCACGGATCCAGGTCCTCGGAGTCACCTAGTGCAG	8560 fluorescence intensity (a.u.)
CACACCACGGCCACCACCACCAACTCGATCGCACAGCAAACGGAGTCACCTAGTGCAG	8430 fluorescence intensity (a.u.)
CAACTCTTGGTTCGTTTTTATATGATATCACCCATCACGACGGAGTCACCTAGTGCAG	9790 fluorescence intensity (a.u.)
CATTTCTCTCGGTTCATTTGTGATGCTAACTGATACTAAGCGGAGTCACCTAGTGCAG	9320 fluorescence intensity (a.u.)
CTTAGTTTAAAATCGTTCGATCTTGCTTTGAAGGTCTGATCGGAGTCACCTAGTGCAG	8240 fluorescence intensity (a.u.)
AATCATCACATCATCACCGTCATCTTCTCTAGCATAGCAACGGAGTCACCTAGTGCAG	8050 fluorescence intensity (a.u.)
CTTCAAACTTTCAACTTTTCCGTCACATCGAATTTCCCTACGGAGTCACCTAGTGCAG	9020 fluorescence intensity (a.u.)
CATCTACCCATAGTACTATATTATCATTTGTCACACTGACCGGAGTCACCTAGTGCAG	10500 fluorescence intensity (a.u.)

— PMC7819943, “Rice protein-binding microarrays: a tool to detect cis-acting elements near promoter regions in rice”
